The other results are listed elsewhere or left out. The main result of the screen is listed elsewhere. These columns were measured beside it and carry no call. The list favours compounds with an active or inconclusive main result. Potencies come from curve fits of mixed quality, noted in brackets.
Assay: qHTS Assay for Lipid Storage Modulators in Drosophila S3 Cells;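 on cell number change: cells counted by Cell Tracker Red CMTPX staining in the red channel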
Settings: BODIPY lipid droplet fluorescence, 18-24 h; for cell number change: measured here: cell count max response, cells fed with added oleic acid
Summary of the method: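 Drosophila S3 cells loaded with oleic acid (400 uM, as added) and compounds at several concentrations; lipid droplets imaged by 488-nm laser-scanning cytometry, 500–530 nm intensity and object ratio to cell channel. Percent activity normalized to 20 uM Triacsin C.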

[1] = measured here: cell number channel AC50, cells fed with added oleic acid
[2] = measured here: lipid fluorescence (Fed channel) AC50, cells fed with added oleic acid

CC1(c2ccc(OC(F)F)cc2)NC(=O)N(CC(=O)Nc2ccc3c(c2)OCO3)C1=O (centres undefined)
cell number change: 118%
AC50 [1]: 0.13 µM [rising, full curve, poor fit]

COc1ccc(S(=O)(=O)NN(C)c2nc(C(F)(F)F)nc3ccccc23)cc1
cell number change: 1.76%

CCOc1ccccc1O[C@H](c1ccccc1)[C@H]1CNCCO1
cell number change: 51.6%
AC50 [1]: 1.64 µM [rising, partial curve]
AC50 [2]: 2.59 µM [rising, partial curve]

CC(=O)N1CCN(C(=O)COC(=O)CNC(=O)c2ccc(C)cc2)CC1
cell number change: 2.45%
AC50 [1]: 4.61 µM [falling, single point]

Cc1cccc(NC(=O)CCC(=O)c2cccs2)n1
AC50 [1]: 3.66 µM [rising, single point]

C=CCc1ccccc1OCC(O)CN1CCN(c2ccccc2F)CC1 (centres undefined)
cell number change: -53.4%
AC50 [1]: 32.6 µM [falling, single point]
AC50 [2]: 29.1 µM [falling, single point]

O=C(Cc1ccccc1)NCC(=O)N/N=C/c1ccc([N+](=O)[O-])s1
AC50 [2]: 29.1 µM [falling, single point]

Clc1cc(Br)ccc1OCCn1ccnc1
cell number change: 80.4%
AC50 [1]: 13 µM [rising, partial curve]

O=c1[nH]c2ccc(Cl)cc2c(O)c1-c1ccccc1
cell number change: 4.17%
AC50 [2]: 29.1 µM [rising, single point]

O=C(Nc1ccccc1)N(Cc1ccccc1)C1=NCCS1
cell number change: -20%
AC50 [2]: 4.11 µM [falling, full curve]

Cc1cc(=O)[nH]c(-n2nc(C)c(Oc3ccccc3O)c2C)n1
cell number change: 0.571%

COc1ccccc1OC(C)C(=O)Nc1nc(-c2ccc(S(=O)(=O)N3CCOCC3)cc2)cs1 (centres undefined)
cell number change: -21.7%
AC50 [2]: 29.1 µM [falling, single point]

COc1ccc(CNC(=O)c2cc(S(=O)(=O)N3CCOCC3)cn2C)cc1
cell number change: 20.5%
AC50 [2]: 3.66 µM [rising, full curve]

CC(OC(=O)Cn1cc(C(F)(F)F)ccc1=O)C(=O)NC(C)c1ccc(Cl)cc1Cl (centres undefined)
cell number change: 31.8%
AC50 [1]: 14.6 µM [rising, single point]
AC50 [2]: 25.9 µM [rising, single point]

O=C(CSc1ccc(-c2cccs2)nn1)NCc1ccccc1Cl
cell number change: -10.2%
AC50 [2]: 0.58 µM [falling, full curve, poor fit]

CCc1ccccc1NC(=O)CSc1nnc([C@@H](NC(=O)OC(C)(C)C)C(C)CC)o1 (some centres undefined)
cell number change: -1.5%
AC50 [2]: 3.66 µM [falling, partial curve]

COc1ccc(F)cc1C(=O)C1CCCN(C(=O)CSc2ccccn2)C1 (centres undefined)
cell number change: -14.5%
AC50 [2]: 16.4 µM [falling, single point]

Brc1ccc(-c2cnc(-c3cccs3)o2)cc1
cell number change: -34.2%
AC50 [1]: 32.6 µM [falling, single point]

Cc1nc2cc(-c3cccc(F)c3)nn2c(C)c1CCC(=O)NC(C)CCc1ccco1 (centres undefined)
cell number change: -26.7%
AC50 [2]: 29.1 µM [falling, single point]

O=c1[nH][nH]c(-c2ccccc2O)c1C(C[N+](=O)[O-])c1ccccc1 (centres undefined)
cell number change: 65%
AC50 [1]: 18.4 µM [rising, single point]

O=C(COc1ccccc1F)Nc1nnc(C2CCCC2)s1
cell number change: 7.08%
AC50 [2]: 6.51 µM [rising, single point]

CCNC(=O)CC1C(=O)N(c2ccc(F)cc2)C(=O)N1Cc1ccccn1 (centres undefined)
cell number change: 22.9%
AC50 [2]: 18.4 µM [rising, single point]

Cc1ccc(S(=O)(=O)N(CC(=O)c2ccc(Cl)cc2)C(=O)N2CCN(C)CC2)cc1
cell number change: 8.01%
AC50 [2]: 29.1 µM [falling, single point]

Cc1cccc(N2CCN(C(=O)c3cccc(N4C(=O)C5C6C=CC(C6)C5C4=O)c3)CC2)c1C (centres undefined)
cell number change: 37.9%
AC50 [1]: 25.9 µM [rising, single point]
AC50 [2]: 0.731 µM [rising, single point]

Cc1ccc(S(=O)(=O)Nc2ccccc2F)cc1C(=O)NCCCN1CCCC1=O
cell number change: 5.07%

Cc1nc2c(c(=O)n1CCC1=CCCCC1)c1nc3ccccc3nc1n2/N=C/c1ccco1
AC50 [1]: 1.46 µM [rising, single point]
AC50 [2]: 6.51 µM [rising, partial curve]

Cc1ccc(OCC(=O)Nc2cccc(S(=O)(=O)N3CCCCCC3)c2)c([N+](=O)[O-])n1
cell number change: -3.25%
AC50 [2]: 6.51 µM [falling, single point]

CCCCCCCCCn1ccc(=N)cc1
cell number change: -64.2%
AC50 [1]: 1.64 µM [falling, full curve]
AC50 [2]: 5.8 µM [falling, full curve]

Cc1ccc(NCC(=O)Nc2cccc(F)c2)cc1S(=O)(=O)N1CCCCCC1
cell number change: 0.872%

O=C(CNC(=O)c1cccs1)NC1=NCCS1
cell number change: -5.39%
AC50 [2]: 29.1 µM [falling, single point]

O=C1N(CCCCN2C(=O)C3(OCCO3)c3ccccc32)c2ccccc2C12OCCO2
cell number change: 150%
AC50 [1]: 18.4 µM [rising, partial curve]
AC50 [2]: 13 µM [rising, partial curve]

CCc1ccc2nc(N3C(=O)C(O)=C(C(=O)c4ccco4)C3c3cccs3)sc2c1 (centres undefined)
cell number change: -25.9%
AC50 [2]: 23.1 µM [falling, single point]

Cc1ccc(C(=O)N(C)CC(=O)Nc2cccc(F)c2)cc1S(=O)(=O)N1CCCCC1
cell number change: 11.5%
AC50 [2]: 20.6 µM [rising, single point]

CCOc1ccc(NC(=O)c2cc(C3CC3)nc3c2cnn3C(C)C)cc1OC
cell number change: -0.791%

Cc1ccc(NC(=O)Cn2nnc(C(=O)NCCc3ccccc3)c2N)cc1Cl
cell number change: 7.25%
AC50 [2]: 0.58 µM [falling, single point]

CCOc1ccccc1NC(=O)c1ccc(CN2CCc3ccccc3C2)cc1
cell number change: -19.8%
AC50 [1]: 0.13 µM [falling, full curve, poor fit]

O=C(CSc1nc2nn(-c3ccccc3)c(=O)c-2c2n1CCCCC2)NCCCc1ccccc1
AC50 [1]: 1.3 µM [rising, partial curve]
AC50 [2]: 0.326 µM [rising, full curve]

CN(CC(=O)Nc1ccccc1Br)C(=O)CCC1CCCC1
cell number change: 3.78%

— PubChem BioAssay AID2685 (National Center for Advancing Translational Sciences (NCATS), 2010)
